The values below come from paper PMC6700475.

Sequences of proteins named here, by UniProt entry; tags and fusion partners are left off.
UniProt Q15554: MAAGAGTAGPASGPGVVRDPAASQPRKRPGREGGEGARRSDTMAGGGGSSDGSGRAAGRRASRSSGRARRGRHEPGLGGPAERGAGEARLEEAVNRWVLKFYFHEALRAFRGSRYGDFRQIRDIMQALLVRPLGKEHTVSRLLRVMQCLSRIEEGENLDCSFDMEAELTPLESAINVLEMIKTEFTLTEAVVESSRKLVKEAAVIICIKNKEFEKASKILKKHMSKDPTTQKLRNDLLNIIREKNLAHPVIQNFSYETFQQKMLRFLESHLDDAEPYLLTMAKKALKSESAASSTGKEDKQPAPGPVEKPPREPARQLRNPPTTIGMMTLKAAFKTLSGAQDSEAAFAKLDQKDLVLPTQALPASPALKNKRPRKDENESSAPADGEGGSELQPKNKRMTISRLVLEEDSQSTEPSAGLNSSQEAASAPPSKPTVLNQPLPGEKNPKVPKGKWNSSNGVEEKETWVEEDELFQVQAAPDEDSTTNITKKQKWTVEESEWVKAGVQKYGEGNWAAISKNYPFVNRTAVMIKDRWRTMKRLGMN
UniProt Q99497: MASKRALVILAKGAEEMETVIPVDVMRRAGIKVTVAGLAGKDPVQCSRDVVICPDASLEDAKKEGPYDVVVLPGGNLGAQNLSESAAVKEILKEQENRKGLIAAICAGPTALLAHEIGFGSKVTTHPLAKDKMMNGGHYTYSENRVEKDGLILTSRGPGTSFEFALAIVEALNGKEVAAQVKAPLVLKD

No constants are given. Whether binding was seen depends on the method and setting. In cells and extracts the contact can be indirect. Some binding calls cover weakened binding; strength is not graded here.

Assay [1] has as its target T1, phosphoglycerate kinase 1 (PGK1) (human (endogenous in A2780 and HCT116)) (UniProt P00558).
T1 sequence: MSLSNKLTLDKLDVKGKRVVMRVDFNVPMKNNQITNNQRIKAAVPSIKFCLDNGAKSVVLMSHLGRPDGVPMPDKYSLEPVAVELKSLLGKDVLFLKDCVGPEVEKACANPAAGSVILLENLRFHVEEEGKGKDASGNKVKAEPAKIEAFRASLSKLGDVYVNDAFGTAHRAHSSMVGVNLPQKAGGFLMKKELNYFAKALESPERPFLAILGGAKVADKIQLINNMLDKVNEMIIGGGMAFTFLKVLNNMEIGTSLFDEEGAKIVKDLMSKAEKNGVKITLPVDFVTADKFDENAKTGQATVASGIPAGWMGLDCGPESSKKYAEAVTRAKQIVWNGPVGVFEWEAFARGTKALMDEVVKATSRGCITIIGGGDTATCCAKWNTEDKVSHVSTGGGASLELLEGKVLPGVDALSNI
In words: co-IP; reciprocal co-immunoprecipitation of endogenous PGK1 (ab90787) and DJ1 (ab18257) on Dynabeads M270 from A2780 lysates, 30 minutes at 4 °C, 100 mM NaCl; cells treated with vehicle or 10 nM CRT0063465 for 1 hour; immunoblot.

The target in assay [2] is TRF2 (human (endogenous in HCT116)) (UniProt Q15554). In words: co-IP; immunoprecipitation of endogenous TRF2 (ab13579) on Dynabeads from HCT116 lysates, 30 minutes at 4 °C; cells cultured 1 week in 5 mM (physiological) or 500 μM (hypoglycemic) glucose with or without 10 nM CRT0063465; immunoblot for DJ1, PGK1, Ku80 and TRF2. For orientation: Immunoblotting shows a protein as a band on a membrane.

As to PARK7/DJ1 (from UniProt Q99497 1-189), the binding result in assay [1] and in assay [2] was “binds” each time.
